Not every detail of the peptide structures is certain; ends, links or a residue may be inferred. No end group written: not given here.
Legend:
[1] = test system: CTL precursors in peripheral blood lymphocytes; test: Limiting dilution analysis (LDA) of differentiation of CTL precursors to mature CTL; format: cell-based, human; settings: at 200 mcg/ml; tested at 200, 100, 50, 25 mcg/ml, inhibition dose-dependent; added at initiation of 7-day culture; FIG. 1D
resting PBL = test: Alloantigen-induced proliferation of resting PBL (thymidine incorporation); format: cell-based; settings: PBL co-cultured with irradiated EBV cells, peptide added at initiation, 6 days; FIG. 3
[2] = test system: cultured CTL (CD8-dependent or independent); test: Standard 4-hour cytotoxicity assay with cultured mature CTL; format: cell-based; settings: FIG. 2

Sequence: EDQTQDTELVETRP [HLAI.222-235, EDQTQDTELVETRP]
- inhibition of generation of HLA-A2.1-specific CTLs [1]: essentially complete blockade
- alloantigen-induced proliferation of resting PBL (resting PBL): does not block
- inhibition of lysis by mature cultured CTL [2]: no effect
